{"sequences": {"note": "Sequences of proteins named here, by UniProt entry; tags and fusion partners are left off.", "UniProt Q8NER1, whole entry, looked up": "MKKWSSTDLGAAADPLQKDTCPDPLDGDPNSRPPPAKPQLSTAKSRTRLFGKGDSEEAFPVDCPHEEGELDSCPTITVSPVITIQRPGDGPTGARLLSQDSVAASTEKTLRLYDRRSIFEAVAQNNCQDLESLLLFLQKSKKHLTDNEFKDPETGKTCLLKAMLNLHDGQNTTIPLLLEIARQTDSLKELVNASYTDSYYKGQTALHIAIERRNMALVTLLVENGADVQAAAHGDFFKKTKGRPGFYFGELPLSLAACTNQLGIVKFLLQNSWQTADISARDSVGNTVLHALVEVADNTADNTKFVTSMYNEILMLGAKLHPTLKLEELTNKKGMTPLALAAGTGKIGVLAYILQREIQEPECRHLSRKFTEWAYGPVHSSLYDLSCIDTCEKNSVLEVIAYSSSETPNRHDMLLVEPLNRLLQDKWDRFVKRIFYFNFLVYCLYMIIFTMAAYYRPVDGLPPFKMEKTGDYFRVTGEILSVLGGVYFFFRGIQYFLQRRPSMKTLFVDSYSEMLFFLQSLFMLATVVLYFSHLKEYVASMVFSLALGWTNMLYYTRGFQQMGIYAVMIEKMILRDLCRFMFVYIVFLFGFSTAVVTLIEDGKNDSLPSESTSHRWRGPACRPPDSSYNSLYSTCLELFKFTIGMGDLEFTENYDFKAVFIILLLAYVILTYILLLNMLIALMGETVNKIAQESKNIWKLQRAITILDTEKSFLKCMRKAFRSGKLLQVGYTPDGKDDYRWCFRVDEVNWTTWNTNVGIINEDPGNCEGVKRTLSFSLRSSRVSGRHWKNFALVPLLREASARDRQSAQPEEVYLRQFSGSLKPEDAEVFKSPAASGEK"}, "source": "PubChem BioAssay AID540275", "about": "(National Center for Advancing Translational Sciences (NCATS), 2011)", "note": "The whole screen tested about 320,000 compounds, of which about 620 (0.19%) were called active. Inconclusive means that the source gave no clear call. Such entries were picked first, then a sample of the others. Rule as the data show it: active = activation above about 80%; inconclusive = between about 30% and that limit; inactive = weaker than that.", "data": [{"target": "Transient receptor potential cation channel subfamily V member 1 (Homo sapiens) (UniProt Q8NER1)", "assay": "HTS Assay for Compounds that Act as Agonists of the Vanilloid Receptor 1; also: 0% is about no effect", "details": "TRPV1-expressing cells, Fluo-8 calcium influx, agonist mode; at 8.33 µM, active compounds read high", "outline": "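TRPV1-expressing cells were cultured overnight at 35.5C and loaded with Fluo-8 calcium dye for 40 to 90 min at room temperature. After a 10 s baseline, compound was added and calcium influx was read kinetically for 3 min (ex 480/em 520 nm).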", "values": [{"smiles": "CCN(CC)c1ccc2cc(C(=O)NCc3ccc(F)cc3)c(=N)oc2c1", "activation": "inconclusive: 71%"}, {"smiles": "NNc1nc(Nc2ccccc2)nc(Nc2ccccc2)n1", "activation": "inconclusive: 75.1%"}, {"smiles": "O=c1c2ccccc2[nH]c2ccc(F)cc12", "activation": "inactive: 0.439%"}, {"smiles": "Cc1cccc2cc(-c3nc4c(C)cccn4c3NCc3ccco3)c(=O)[nH]c12", "activation": "inconclusive: 39.3%"}, {"smiles": "Cc1cc2cc(C)c(SCC(=O)NCc3ccco3)nc2cc1C", "activation": "inconclusive: 36.6%"}, {"smiles": "O=C(NCC1CCCCC1)c1ccc(F)cc1Cl", "activation": "inconclusive: 39%"}, {"smiles": "CCCCC(OC(=O)CN1C(=O)COc2ccccc21)C(=O)NC1CCCCC1", "note": "(centres undefined)", "activation": "inconclusive: 32.8%"}, {"smiles": "Cc1cc(Nc2cccc([N+](=O)[O-])c2)n2c(nc3ccccc32)c1C#N", "activation": "inactive: 3.89%"}, {"smiles": "CCOC(=O)C1CCCN(C(=O)Nc2ccccc2)C1", "note": "(centres undefined)", "activation": "inactive: -2.93%"}, {"smiles": "O=C(NCc1ccccc1)N1CCOCC1", "activation": "inactive: 0.276%"}, {"smiles": "Cc1cccc(N2CCN(C(=O)c3cc(S(=O)(=O)N4CCOCC4)cn3C)CC2)c1C", "activation": "inconclusive: 51.5%"}, {"smiles": "COc1ccc(C2=C/C(=C/c3cccnc3)C(=O)O2)cc1OC", "activation": "inconclusive: 30.5%"}, {"smiles": "COc1ccc(OC)c(/C=N/NC(=O)c2cc(-c3ccc(C)o3)nc3ccccc23)c1", "activation": "inactive: -6.11%"}, {"smiles": "Cn1c(NC(=O)Cc2cccc3ccccc23)cc(=O)n(C)c1=O", "activation": "inconclusive: 44.1%"}, {"smiles": "O=C(/C=C/c1ccccc1)OCc1cncs1", "activation": "inconclusive: 34.1%"}, {"smiles": "O=C(Nc1c(F)cccc1F)c1cnc(N2CCN(c3ccccn3)CC2)c2ccccc12", "activation": "inactive: 4.31%"}, {"smiles": "Cc1[nH]c2ccc(Br)cc2c(=S)c1C/C=C/Cl", "activation": "inactive: 1.56%"}, {"smiles": "Oc1ccc(NCc2cccc(OCc3ccccc3)c2)cc1", "activation": "inactive: 3.84%"}, {"smiles": "CCN(CC)S(=O)(=O)c1cccc(S(=O)(=O)c2cccc(S(=O)(=O)N(CC)CC)c2)c1", "activation": "inactive: 5.74%"}, {"smiles": "O=C(NCc1ccco1)c1ccc(-c2cccc(Cl)c2)o1", "activation": "inconclusive: 45.9%"}, {"smiles": "COc1ccc(Nc2nc(NCc3ccco3)nc(N/N=C/c3ccc(O)cc3)n2)cc1", "activation": "inconclusive: 50.7%"}, {"smiles": "COC(=O)c1cccc(NC(=O)c2ccccc2)c1", "activation": "inconclusive: 59.5%"}, {"smiles": "CCC1CCC(C(=O)NC(CCSC)C(=O)NCCN(CC(C)C)CC(C)C)CC1", "note": "(centres undefined)", "activation": "inconclusive: 44.2%"}, {"smiles": "CC1(C)NC(=O)N(CC(O)Cn2c3ccccc3c3ccccc32)C1=O", "note": "(centres undefined)", "activation": "inconclusive: 54.1%"}, {"smiles": "COc1ccccc1OCC(=O)N/N=C/c1c(O)ccc2ccccc12", "activation": "inactive: -5.18%"}, {"smiles": "COc1ccc(CNC(=O)COc2ccccc2C(=O)c2cnn(-c3ccccc3)c2)cc1OC", "activation": "inactive: 11.4%"}, {"smiles": "COc1ccc(S(=O)(=O)NCc2ccncc2)cc1OC", "activation": "inactive: -1.27%"}, {"smiles": "CC(=O)N1CC(=O)N(Cc2ccccc2)/C(=C/c2ccccc2)C1=O", "activation": "inconclusive: 60.7%"}, {"smiles": "CCOc1ccc(NC(=O)Nc2cc(OCC(F)(F)F)cc(OCC(F)(F)F)c2)cc1", "activation": "inconclusive: 42.8%"}, {"smiles": "O=C(Nc1ccccc1C(=O)NC1CCCCC1)c1ccccc1", "activation": "inconclusive: 43.6%"}, {"smiles": "O=C1C=C(c2ccc(F)cc2OCc2ccccc2)C[C@@H](c2ccc(F)cc2)C1", "activation": "inconclusive: 53.2%"}, {"smiles": "COc1cccc(C2=CC(=O)C[C@H](c3ccc4c(c3)OCO4)C2)c1OC", "activation": "inconclusive: 55.8%"}, {"smiles": "NC(=O)C1CCN(C(=O)CCSCc2ccccc2)CC1", "activation": "inconclusive: 43.2%"}, {"smiles": "CSc1ccc(S(=O)(=O)NC2CCCCCC2)cc1", "activation": "inconclusive: 35.4%"}, {"smiles": "NC(=S)n1[nH]c(-c2ccc([N+](=O)[O-])cc2)c(N=Nc2cccc(Cl)c2)c1=O", "activation": "inactive: 2.66%"}, {"smiles": "CCN(CC)S(=O)(=O)c1ccc(C(=O)Nc2nnc(C(C)C)s2)cc1", "activation": "inconclusive: 44.6%"}, {"smiles": "Cc1ccc2c(c1)N(C(=O)CCC(=O)NC1CCCCCC1)CC(C)O2", "note": "(centres undefined)", "activation": "inconclusive: 43.3%"}, {"smiles": "Cc1cccc(NC(=S)NCc2ccc(F)cc2)c1", "activation": "inconclusive: 43.4%"}, {"smiles": "O=C(CSCc1ccc(F)cc1)Nc1ccc(F)cc1", "activation": "inconclusive: 49.1%"}, {"smiles": "COc1cc(-c2nc3cnccn3c2NC(C)(C)CC(C)(C)C)ccc1O", "activation": "inconclusive: 32.3%"}, {"smiles": "Cc1ccc(NC(=O)c2cc(C)n(-c3ccccc3)c2C)cc1", "activation": "inconclusive: 49%"}, {"smiles": "CCCCC(=O)NC(=S)Nc1cccc(NC(=O)c2ccco2)c1", "activation": "inactive: 12.1%"}, {"smiles": "O=C(NCCNc1ccc(Cl)cc1[N+](=O)[O-])c1ccccc1F", "activation": "inconclusive: 37.4%"}, {"smiles": "O=C(Nc1ccc(COc2ccccc2)cc1)Nc1cccc(C(=O)O)c1", "activation": "inactive: -3.38%"}, {"smiles": "Cc1ccc(C2=N/C(=C\\c3cccs3)C(=O)N2Nc2ccccc2)cc1", "activation": "inconclusive: 31.8%"}, {"smiles": "CCOC(=O)c1c(C)n(-c2ccccc2)c2ccc(OCCN(C)C)cc12", "activation": "inconclusive: 33.5%"}, {"smiles": "O=C(NC(=S)Nc1cccc(C(F)(F)F)c1)c1ccc2nonc2c1", "activation": "inactive: 2.78%"}, {"smiles": "CN(C)c1ccc(NC(=O)c2ccc(Cn3cc([N+](=O)[O-])cn3)cc2)cc1", "activation": "inconclusive: 48.6%"}, {"smiles": "O=C(NC1CC1)c1ccc(-c2nc3ccccc3s2)s1", "activation": "inconclusive: 60.7%"}, {"smiles": "CCc1sc(C(=O)Nc2ccc(F)cc2C)cc1C", "activation": "inconclusive: 32.7%"}, {"smiles": "c1ccc(Cn2c(CNc3nc4ccccc4n3CCN3CCCCC3)nc3ccccc32)cc1", "activation": "inactive: 27.7%"}, {"smiles": "Fc1ccccc1OCCn1c(=S)[nH]c2ccccc21", "activation": "inactive: 18.4%"}, {"smiles": "Cn1c(-c2ccc(F)cc2)cnc1SCC(=O)N1CCCCC1", "activation": "inconclusive: 41.7%"}, {"smiles": "O=[N+]([O-])c1ccccc1CN1CCN(Cc2ccc3ccccc3c2)CC1", "activation": "inactive: -5.22%"}, {"smiles": "Clc1ccccc1Cn1nnc(-c2cccs2)n1", "activation": "inactive: 3.07%"}, {"smiles": "CC(C)c1ccc(NC(=O)c2ccc(NS(C)(=O)=O)cc2)cc1", "activation": "inconclusive: 69.8%"}, {"smiles": "O=C(NC1=C(Nc2ccc(Cl)cc2)C(=O)c2ccccc2C1=O)c1ccccc1", "activation": "inconclusive: 41%"}, {"smiles": "CCC(=O)N(CCc1ccccc1)Cc1cc2cc3c(cc2[nH]c1=O)OCO3", "activation": "inactive: -5.46%"}, {"smiles": "CCOC(=O)Cc1csc(NC(=O)c2csc3c2CCCC3)n1", "activation": "inactive: 0.79%"}]}]}
